Data as given in paper PMC7862473.
No constants are given. Whether binding was seen depends on the method and setting. In cells and extracts the contact can be indirect. A yes stands for co-enrichment or nearness to the bait. Other partners may have been found.

Chains of the proteins cited; added tags and fusions are not shown.
UniProt Q9H4G0: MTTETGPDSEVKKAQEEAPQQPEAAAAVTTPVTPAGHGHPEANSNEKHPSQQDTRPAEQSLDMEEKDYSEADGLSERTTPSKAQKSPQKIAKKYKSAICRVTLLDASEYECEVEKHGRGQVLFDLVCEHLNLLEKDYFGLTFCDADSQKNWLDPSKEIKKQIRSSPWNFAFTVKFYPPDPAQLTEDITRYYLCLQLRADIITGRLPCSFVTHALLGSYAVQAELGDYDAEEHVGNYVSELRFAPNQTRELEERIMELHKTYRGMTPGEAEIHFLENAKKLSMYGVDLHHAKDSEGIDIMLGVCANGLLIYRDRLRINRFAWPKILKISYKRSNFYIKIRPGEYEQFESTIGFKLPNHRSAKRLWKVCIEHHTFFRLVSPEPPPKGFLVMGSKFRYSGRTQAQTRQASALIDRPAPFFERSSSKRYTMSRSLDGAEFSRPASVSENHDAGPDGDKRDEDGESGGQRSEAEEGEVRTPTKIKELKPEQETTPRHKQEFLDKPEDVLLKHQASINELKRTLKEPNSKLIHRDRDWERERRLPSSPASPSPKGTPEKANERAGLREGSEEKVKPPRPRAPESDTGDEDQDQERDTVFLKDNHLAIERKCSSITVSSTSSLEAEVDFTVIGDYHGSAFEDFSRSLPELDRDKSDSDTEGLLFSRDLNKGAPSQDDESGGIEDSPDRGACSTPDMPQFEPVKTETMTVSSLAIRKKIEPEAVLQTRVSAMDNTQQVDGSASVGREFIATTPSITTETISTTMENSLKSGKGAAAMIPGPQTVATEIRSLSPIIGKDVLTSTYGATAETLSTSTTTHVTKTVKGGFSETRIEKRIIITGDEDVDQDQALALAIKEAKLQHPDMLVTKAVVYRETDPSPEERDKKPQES
UniProt P63104: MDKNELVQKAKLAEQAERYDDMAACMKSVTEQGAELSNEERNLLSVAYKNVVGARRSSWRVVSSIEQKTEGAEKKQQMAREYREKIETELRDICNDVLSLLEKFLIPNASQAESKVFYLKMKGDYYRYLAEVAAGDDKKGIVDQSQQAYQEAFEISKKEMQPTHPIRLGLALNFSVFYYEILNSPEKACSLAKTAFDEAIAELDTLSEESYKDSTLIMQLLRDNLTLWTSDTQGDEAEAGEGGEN

B1: 14-3-3η (protein, UniProt Q04917 1-246)
chain: MGDREQLLQRARLAEQAERYDDMASAMKAVTELNEPLSNEDRNLLSVAYKNVVGARRSSWRVISSIEQKTMADGNEKKLEKVKAYREKIEKELETVCNDVLSLLDKFLIKNCNDFQYESKVFYLKMKGDYYRYLAEVASGEKKNSVVEASEAAYKEAFEISKEQMQPTHPIRLGLALNFSVFYYEIQNAPEQACLLAKQAFDDAIAELDTLNEDSYKDSTLIMQLLRDNLTLWTSDQQDEEAGEGN
B2: 14-3-3γ (protein, UniProt P61981 1-247)
chain: MVDREQLVQKARLAEQAERYDDMAAAMKNVTELNEPLSNEERNLLSVAYKNVVGARRSSWRVISSIEQKTSADGNEKKIEMVRAYREKIEKELEAVCQDVLSLLDNYLIKNCSETQYESKVFYLKMKGDYYRYLAEVATGEKRATVVESSEKAYSEAHEISKEHMQPTHPIRLGLALNYSVFYYEIQNAPEQACHLAKTAFDDAIAELDTLNEDSYKDSTLIMQLLRDNLTLWTSDQQDDDGGEGNN

The molecules below were run against 4.1N expressed from EPB41L1-pEGFP in A2780 OE cells (human) (UniProt Q9H4G0) (assay: affinity purification with mass spectrometry; Co-IP with anti-GFP antibody from A2780 OE versus A2780 WT lysates, on-bead crosslinking, LC-MS/MS).

binding, binds:
14-3-3ζ (from UniProt P63104 1-245)
B1
B2
